Measured values reported in the supplement of paper PMC10849652.
The list shows a part of the results.

By UniProt entry, the sequences of proteins in these tests, tags left out. Where a name states a change or a piece, a line headed by the entry shows the natural chain unless it says otherwise.
UniProt P55789: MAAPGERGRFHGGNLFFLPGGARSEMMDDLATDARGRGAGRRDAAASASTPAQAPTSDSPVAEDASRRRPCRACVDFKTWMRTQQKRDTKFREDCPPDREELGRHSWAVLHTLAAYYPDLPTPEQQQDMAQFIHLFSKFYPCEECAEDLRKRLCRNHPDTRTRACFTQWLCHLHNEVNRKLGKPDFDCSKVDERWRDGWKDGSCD
UniProt Q14435: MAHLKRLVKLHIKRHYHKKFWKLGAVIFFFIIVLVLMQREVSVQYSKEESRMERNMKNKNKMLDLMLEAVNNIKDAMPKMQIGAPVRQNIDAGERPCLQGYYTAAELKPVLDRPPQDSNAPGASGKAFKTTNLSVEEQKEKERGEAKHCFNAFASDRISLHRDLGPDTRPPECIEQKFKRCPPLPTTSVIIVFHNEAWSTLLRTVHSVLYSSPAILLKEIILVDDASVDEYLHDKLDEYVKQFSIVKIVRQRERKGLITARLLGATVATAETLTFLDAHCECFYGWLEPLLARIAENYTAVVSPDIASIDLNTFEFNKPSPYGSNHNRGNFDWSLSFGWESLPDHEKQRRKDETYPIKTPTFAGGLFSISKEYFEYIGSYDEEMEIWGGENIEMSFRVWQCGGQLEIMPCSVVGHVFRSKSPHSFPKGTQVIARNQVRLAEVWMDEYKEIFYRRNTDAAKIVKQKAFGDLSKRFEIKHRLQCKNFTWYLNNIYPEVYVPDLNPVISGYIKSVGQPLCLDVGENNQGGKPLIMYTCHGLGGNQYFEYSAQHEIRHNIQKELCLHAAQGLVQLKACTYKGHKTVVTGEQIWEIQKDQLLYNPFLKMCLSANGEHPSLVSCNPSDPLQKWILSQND
UniProt Q8TB36: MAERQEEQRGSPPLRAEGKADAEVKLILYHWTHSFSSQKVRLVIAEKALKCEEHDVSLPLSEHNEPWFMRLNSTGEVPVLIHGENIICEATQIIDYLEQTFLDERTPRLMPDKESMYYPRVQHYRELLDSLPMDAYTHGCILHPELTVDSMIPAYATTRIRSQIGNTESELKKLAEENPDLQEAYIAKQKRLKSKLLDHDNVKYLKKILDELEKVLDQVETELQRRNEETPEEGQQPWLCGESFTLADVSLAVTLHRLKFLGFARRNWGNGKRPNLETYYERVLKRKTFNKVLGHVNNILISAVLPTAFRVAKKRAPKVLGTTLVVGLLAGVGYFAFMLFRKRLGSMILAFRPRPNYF
UniProt Q8N9F7: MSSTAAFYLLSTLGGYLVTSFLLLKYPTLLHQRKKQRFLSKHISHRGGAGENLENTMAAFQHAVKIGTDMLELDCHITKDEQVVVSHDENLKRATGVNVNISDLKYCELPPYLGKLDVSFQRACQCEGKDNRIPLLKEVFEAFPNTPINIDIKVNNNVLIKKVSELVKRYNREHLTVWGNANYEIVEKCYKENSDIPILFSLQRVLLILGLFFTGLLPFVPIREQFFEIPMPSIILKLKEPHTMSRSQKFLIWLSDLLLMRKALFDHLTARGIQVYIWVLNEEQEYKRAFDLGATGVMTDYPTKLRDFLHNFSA
UniProt P41250: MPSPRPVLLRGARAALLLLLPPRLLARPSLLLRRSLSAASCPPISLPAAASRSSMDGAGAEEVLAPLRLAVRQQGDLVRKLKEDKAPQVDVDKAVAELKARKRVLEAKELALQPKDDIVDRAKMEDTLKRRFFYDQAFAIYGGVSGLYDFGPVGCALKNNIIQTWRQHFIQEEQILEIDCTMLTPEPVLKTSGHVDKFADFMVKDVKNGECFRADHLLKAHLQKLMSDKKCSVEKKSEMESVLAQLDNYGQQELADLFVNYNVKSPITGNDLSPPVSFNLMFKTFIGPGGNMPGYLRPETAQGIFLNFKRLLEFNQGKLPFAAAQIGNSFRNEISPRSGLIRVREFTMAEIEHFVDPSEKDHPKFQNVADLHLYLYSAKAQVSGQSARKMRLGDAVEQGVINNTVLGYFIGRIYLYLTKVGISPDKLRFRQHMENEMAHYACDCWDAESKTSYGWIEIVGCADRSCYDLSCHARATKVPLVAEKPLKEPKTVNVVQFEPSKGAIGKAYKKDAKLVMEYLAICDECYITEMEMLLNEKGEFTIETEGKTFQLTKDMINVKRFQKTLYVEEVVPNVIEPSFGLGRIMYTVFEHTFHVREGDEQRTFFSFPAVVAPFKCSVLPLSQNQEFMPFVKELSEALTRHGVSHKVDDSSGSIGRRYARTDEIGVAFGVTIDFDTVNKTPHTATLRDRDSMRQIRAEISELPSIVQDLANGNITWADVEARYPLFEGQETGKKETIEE
UniProt Q9UPW0: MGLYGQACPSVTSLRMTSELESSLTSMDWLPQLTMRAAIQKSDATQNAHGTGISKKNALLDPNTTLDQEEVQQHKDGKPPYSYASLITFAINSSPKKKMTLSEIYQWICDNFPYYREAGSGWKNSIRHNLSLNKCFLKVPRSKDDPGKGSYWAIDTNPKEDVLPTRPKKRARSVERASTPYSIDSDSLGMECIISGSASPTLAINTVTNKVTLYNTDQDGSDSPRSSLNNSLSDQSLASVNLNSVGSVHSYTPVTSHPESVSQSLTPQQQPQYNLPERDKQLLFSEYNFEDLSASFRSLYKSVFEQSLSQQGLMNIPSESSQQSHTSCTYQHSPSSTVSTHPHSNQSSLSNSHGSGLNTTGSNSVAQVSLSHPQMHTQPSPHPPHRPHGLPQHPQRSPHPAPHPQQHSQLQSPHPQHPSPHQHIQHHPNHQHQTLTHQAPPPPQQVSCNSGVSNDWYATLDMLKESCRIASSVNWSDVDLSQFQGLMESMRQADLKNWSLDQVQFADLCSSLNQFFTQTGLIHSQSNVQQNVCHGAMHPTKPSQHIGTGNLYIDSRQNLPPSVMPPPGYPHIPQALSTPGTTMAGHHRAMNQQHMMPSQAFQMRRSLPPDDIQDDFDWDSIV
UniProt Q8WXD5: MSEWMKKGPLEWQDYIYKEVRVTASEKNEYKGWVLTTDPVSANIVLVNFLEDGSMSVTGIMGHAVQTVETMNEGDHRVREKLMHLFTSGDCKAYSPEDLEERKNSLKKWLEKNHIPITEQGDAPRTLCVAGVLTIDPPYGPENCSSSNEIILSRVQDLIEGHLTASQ
UniProt Q92616, whole entry, looked up: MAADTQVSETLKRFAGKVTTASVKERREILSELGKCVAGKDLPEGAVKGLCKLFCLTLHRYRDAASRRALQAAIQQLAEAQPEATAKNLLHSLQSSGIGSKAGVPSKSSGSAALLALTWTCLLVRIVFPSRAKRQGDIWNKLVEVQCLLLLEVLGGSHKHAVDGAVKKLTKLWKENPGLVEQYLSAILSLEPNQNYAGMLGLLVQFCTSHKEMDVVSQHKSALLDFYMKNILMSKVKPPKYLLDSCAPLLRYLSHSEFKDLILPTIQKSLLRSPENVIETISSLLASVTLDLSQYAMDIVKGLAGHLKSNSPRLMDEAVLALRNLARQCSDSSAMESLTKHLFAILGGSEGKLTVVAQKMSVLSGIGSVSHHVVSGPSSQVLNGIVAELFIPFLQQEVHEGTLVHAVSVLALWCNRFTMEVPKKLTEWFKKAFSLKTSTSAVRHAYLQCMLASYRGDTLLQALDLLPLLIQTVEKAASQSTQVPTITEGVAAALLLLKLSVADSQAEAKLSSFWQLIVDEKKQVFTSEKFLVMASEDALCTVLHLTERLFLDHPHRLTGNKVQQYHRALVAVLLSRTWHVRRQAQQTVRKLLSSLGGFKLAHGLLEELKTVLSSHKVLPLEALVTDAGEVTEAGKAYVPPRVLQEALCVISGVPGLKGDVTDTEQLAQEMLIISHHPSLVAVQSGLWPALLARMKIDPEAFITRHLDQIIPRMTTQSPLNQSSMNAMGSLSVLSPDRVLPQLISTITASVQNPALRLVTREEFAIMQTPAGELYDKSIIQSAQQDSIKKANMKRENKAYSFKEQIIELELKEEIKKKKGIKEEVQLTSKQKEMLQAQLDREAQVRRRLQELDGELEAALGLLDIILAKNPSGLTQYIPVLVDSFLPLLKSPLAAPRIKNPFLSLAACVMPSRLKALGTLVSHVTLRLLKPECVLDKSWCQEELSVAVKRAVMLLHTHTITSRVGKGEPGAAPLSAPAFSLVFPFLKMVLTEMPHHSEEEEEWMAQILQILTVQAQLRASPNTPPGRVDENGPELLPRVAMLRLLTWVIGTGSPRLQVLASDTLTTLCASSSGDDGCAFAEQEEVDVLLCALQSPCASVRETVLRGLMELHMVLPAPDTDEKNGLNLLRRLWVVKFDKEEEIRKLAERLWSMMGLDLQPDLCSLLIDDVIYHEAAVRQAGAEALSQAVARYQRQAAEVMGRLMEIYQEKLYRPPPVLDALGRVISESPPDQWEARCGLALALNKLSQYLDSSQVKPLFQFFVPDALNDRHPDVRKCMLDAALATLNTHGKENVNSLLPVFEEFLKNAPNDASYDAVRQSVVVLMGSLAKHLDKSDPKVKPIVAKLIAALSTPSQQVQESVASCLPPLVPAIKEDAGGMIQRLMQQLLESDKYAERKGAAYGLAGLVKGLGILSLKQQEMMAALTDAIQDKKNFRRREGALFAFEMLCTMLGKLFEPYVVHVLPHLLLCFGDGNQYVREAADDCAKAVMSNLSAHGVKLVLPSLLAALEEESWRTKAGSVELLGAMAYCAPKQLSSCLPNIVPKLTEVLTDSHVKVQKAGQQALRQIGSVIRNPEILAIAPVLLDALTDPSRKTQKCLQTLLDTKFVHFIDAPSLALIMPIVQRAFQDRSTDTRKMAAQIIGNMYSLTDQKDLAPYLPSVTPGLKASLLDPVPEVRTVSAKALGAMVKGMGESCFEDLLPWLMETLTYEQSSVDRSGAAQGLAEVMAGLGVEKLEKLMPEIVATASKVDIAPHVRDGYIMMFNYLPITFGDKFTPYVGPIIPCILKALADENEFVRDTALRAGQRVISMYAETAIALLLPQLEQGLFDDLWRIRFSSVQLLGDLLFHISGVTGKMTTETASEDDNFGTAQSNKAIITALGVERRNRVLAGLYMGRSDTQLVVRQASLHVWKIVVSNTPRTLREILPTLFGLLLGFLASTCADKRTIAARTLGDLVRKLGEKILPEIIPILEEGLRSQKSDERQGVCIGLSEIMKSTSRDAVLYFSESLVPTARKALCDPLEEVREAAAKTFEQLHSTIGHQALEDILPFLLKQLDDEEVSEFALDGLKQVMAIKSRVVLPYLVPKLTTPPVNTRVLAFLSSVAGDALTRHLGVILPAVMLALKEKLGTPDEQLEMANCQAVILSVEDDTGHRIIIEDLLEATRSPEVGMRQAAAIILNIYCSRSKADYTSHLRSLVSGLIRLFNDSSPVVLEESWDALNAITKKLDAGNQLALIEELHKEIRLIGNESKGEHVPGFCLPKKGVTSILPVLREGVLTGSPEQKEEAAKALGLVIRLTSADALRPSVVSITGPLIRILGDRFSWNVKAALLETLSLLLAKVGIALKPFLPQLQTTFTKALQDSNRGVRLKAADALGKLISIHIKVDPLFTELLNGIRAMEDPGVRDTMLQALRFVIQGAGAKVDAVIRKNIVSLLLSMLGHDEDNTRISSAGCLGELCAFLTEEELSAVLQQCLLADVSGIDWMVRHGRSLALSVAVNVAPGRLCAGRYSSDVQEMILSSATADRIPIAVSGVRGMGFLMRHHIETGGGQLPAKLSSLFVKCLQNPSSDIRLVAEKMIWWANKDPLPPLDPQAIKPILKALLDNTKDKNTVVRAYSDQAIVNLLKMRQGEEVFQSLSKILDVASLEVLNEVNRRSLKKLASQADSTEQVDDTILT
UniProt Q9BWH2: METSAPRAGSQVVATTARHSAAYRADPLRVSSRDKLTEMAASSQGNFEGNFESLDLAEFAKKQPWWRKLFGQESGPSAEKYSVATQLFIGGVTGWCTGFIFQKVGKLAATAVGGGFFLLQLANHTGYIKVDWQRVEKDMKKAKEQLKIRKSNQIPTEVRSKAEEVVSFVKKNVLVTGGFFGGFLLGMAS
UniProt P54803: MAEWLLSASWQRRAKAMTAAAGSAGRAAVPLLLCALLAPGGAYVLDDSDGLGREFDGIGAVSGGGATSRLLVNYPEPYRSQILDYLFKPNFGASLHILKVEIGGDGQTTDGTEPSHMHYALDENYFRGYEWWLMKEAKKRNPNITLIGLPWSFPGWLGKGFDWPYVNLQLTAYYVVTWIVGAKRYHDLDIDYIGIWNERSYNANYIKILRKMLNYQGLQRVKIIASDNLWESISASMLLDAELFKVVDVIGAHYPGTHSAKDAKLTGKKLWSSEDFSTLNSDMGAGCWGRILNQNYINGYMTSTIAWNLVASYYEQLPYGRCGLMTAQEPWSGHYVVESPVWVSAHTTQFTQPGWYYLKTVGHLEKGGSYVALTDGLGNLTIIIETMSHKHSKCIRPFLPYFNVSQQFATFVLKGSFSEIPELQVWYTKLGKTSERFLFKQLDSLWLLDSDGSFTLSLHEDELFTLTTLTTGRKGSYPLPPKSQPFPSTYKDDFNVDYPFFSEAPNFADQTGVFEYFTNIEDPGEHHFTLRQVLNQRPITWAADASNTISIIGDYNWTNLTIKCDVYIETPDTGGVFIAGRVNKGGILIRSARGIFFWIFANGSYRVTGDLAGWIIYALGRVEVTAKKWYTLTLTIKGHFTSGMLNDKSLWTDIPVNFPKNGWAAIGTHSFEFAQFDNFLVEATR

Key:
Assay in all cases: log2 fold change, soluble protein after heating vs DMSO (PISA); higher = thermal stabilisation; K562 lysate, 10 uM; active = over 0.2 and 3.5 SD of the protein, either way, in both replicates (recomputed)
[1] = compound: C1=CC=C(C=C1)[C@H](COC2=CC3=C(C=C2)NC(=O)N3)NC(=O)C4=CC=CN(C4=O)CC5=CC(=C(C=C5)F)F
Outline: (§1)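 To prepare the extract, K562 pellets were dounce-homogenised in PBS pH 7.4 with 1 mM MgCl2, giving crude material at 1 mg/mL protein. This was treated with 10 μM compound for 30 min, then heated in aliquots for 3 min over 48°C-58°C before pooling and addition of NP-40 to 0.5% at 4°C. Centrifugation at 21,000xg for 90 min left soluble protein in the supernatant, which TMTpro 16plex LC-MS/MS quantified with equalised channel sums. Results are log-two fold changes in thermal stability compared with solvent controls, from duplicates.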

[2] = compound: CC1=C(SC2=C1C(=N[C@H](C3=NN=C(N32)C)CC(=O)N)C4=CC=C(C=C4)Cl)C
Outline: as §1

[3] = compound: CC1=C2C(=CC=C1)N=C(N(C2=O)C3=CC=CC=C3C)CN4C=NC5=C(N=CN=C54)N
Outline: as §1

[4] = compound: Cc1sc2c(c1C)C(c1ccc(Cl)cc1)=N[C@@H](CC(=O)OC(C)(C)C)c1nnc(C)n1-2
Outline: as §1

[5] = compound: c1ccc([C@@H]2C[C@H]2NC2CCNCC2)cc1
Outline: as §1

Measured: log2 fold change

GCLC (UniProt P48506)
inactive: [1] 0.059 | [2] 0.006 | [3] 0.04 | [4] -0.037 | [5] -0.006

GCAT isoform 2 (UniProt O75600)
inactive: [1] 0.073 | [2] 0.017 | [3] -0.009 | [4] -0.028 | [5] -0.023

FUBP1 isoform 2 (UniProt Q96AE4)
inactive: [1] 0.035 | [2] 0.019 | [3] -0.02 | [4] -0.009 | [5] -0.02

GFER (UniProt P55789)
inactive: [1] 0.105 | [2] 0.087 | [3] 0.001 | [4] -0.008 | [5] 0.034

GALNT3 (UniProt Q14435)
inactive: [1] 0.07 | [2] -0.044

GATAD2B (UniProt Q8WXI9)
inactive: [1] 0.01 | [2] 0.02 | [3] 0.019 | [4] 0.051 | [5] 0.056

GARS1 (UniProt H7C443)
inactive: [1] -0.038 | [2] 0.113

GAPVD1 (UniProt Q14C86)
inactive: [1] 0.036 | [2] -0.067

GDAP1 (UniProt Q8TB36)
inactive: [1] -0.033 | [2] 0.032 | [3] 0.026 | [4] 0.047 | [5] 0.09

GAGE1 (UniProt Q13065)
inactive: [1] -0.073 | [2] -0.014

GADD45GIP1 (UniProt Q8TAE8)
inactive: [1] 0.081 | [2] -0.015 | [3] 0.016 | [4] 0.033 | [5] 0.051

FPGT (UniProt O14772)
inactive: [1] 0.007 | [2] -0.003 | [3] 0.07 | [4] -0.006 | [5] 0.104

FTL (UniProt P02792)
inactive: [1] -0.067 | [2] 0.127 | [3] -0.034 | [4] -0.03 | [5] -0.031

GCHFR (UniProt P30047)
inactive: [1] 0.122 | [2] -0.016 | [3] -0.045 | [4] -0.062 | [5] 0.004

GDPD1 (UniProt Q8N9F7)
inactive: [1] -0.047 | [2] 0.018 | [3] 0.117 | [4] 0.024 | [5] -0.036

GALNT4 (UniProt Q8N4A0)
inactive: [1] 0.112 | [2] 0.02 | [3] 0.063 | [4] 0.046 | [5] 0.023

FUCA1 (UniProt P04066)
inactive: [1] 0.032 | [2] 0.018 | [3] 0.021 | [4] -0.038 | [5] -0.051

GABPA (UniProt Q06546)
inactive: [1] 0.005 | [2] 0.035 | [3] 0.017 | [4] 0.031 | [5] -0.085

GCC2 (UniProt Q8IWJ2)
inactive: [1] 0.04 | [2] -0.032 | [3] 0 | [4] -0.023 | [5] -0.033

FYB1 isoform 3 (UniProt O15117)
inactive: [1] 0.011 | [2] 0.039 | [3] 0.095 | [4] 0.008 | [5] 0.051

GARS1 (UniProt P41250)
inactive: [1] 0.01 | [2] 0.01 | [3] 0.002 | [4] -0.014 | [5] 0.002

FSCN1 (UniProt Q16658)
inactive: [1] 0.024 | [2] -0.017 | [3] -0.01 | [4] 0.003 | [5] 0.04

2 consecutive entries out of the list so far:
FYB1 isoform 3 (UniProt O15117)
inactive: [1] 0.011 | [2] 0.039 | [3] 0.095 | [4] 0.008 | [5] 0.051

GARS1 (UniProt P41250)
inactive: [1] 0.01 | [2] 0.01 | [3] 0.002 | [4] -0.014 | [5] 0.002

Next results follow:

FXN (UniProt Q16595)
inactive: [1] 0 | [2] -0.096 | [3] -0.036 | [4] 0.012 | [5] 0.026

FTO (UniProt Q9C0B1)
inactive: [1] 0 | [2] -0.005 | [3] 0.008 | [4] -0.037 | [5] -0.025

FOXP1 (UniProt Q9H334)
inactive: [1] 0.045 | [2] 0.14 | [3] 0.212 | [4] 0.003 | [5] 0.034

FOXJ3 (UniProt Q9UPW0)
inactive: [1] 0.004 | [2] -0.072 | [3] 0.013 | [4] -0.021 | [5] -0.026

FYCO1 isoform 4 (UniProt Q9BQS8)
inactive: [1] 0.01 | [2] 0.037 | [3] 0.03 | [4] 0.023 | [5] -0.1

FTSJ3 (UniProt Q8IY81)
inactive: [1] 0.022 | [2] -0.051 | [3] -0.007 | [4] -0.003 | [5] 0.083

FTH1 (UniProt P02794)
inactive: [1] -0.034 | [2] 0.02 | [3] -0.001 | [4] -0.013 | [5] 0.009

GGA1 isoform 6 (UniProt Q9UJY5)
inactive: [1] 0.006 | [2] 0.006 | [3] 0.016 | [4] -0.012 | [5] 0.026

GEMIN5 (UniProt Q8TEQ6)
inactive: [1] -0.015 | [2] 0.025 | [3] 0.016 | [4] -0.002 | [5] 0.036

GALNT6 (UniProt Q8NCL4)
inactive: [1] 0.041 | [2] 0.001 | [3] -0.052 | [4] -0.128 | [5] -0.105

GABPB1 (UniProt Q06547)
inactive: [1] 0.044 | [2] -0.013 | [3] -0.04 | [4] -0.001 | [5] 0.132

GALM (UniProt Q96C23)
inactive: [1] 0.077 | [2] -0.037 | [3] 0.077 | [4] -0.024 | [5] -0.028

GEMIN6 (UniProt Q8WXD5)
inactive: [1] 0.001 | [2] -0.009 | [3] 0.041 | [4] 0.022 | [5] -0.021

FOXK2 (UniProt Q01167)
inactive: [1] 0.017 | [2] -0.019 | [3] -0.015 | [4] -0.06 | [5] 0.005

GAK (UniProt O14976)
inactive: [1] -0.208 | [2] -0.123 | [3] -0.16 | [4] -0.092 | [5] -0.188

GEMIN4 (UniProt P57678)
inactive: [1] -0.036 | [2] -0.015 | [3] -0.014 | [4] 0.04 | [5] 0.041

FRG1 (UniProt Q14331)
inactive: [1] 0.028 | [2] 0.016 | [3] -0.022 | [4] 0.101 | [5] 0.042

GCN1 (UniProt Q92616)
inactive: [1] -0.046 | [2] 0.003 | [3] 0.019 | [4] 0.035 | [5] 0.063

GFPT1 (UniProt Q06210)
inactive: [1] -0.021 | [2] -0.001 | [3] 0.021 | [4] 0.019 | [5] 0.058

FUBP3 (UniProt Q96I24)
inactive: [1] -0.052 | [2] 0.019 | [3] -0.007 | [4] -0.01 | [5] 0.011

GAGE2A (UniProt Q6NT46)
inactive: [1] -0.03 | [2] 0.021 | [3] -0.093 | [4] 0.01 | [5] 0.038

GAB1 isoform 2 (UniProt Q13480)
inactive: [1] 0.028 | [2] 0.018 | [3] -0.041 | [4] -0.124 | [5] -0.099

GAGE5 (UniProt Q13069)
inactive: [1] -0.08 | [2] -0.137 | [3] -0.026 | [4] -0.031 | [5] 0

GALNT5 (UniProt Q7Z7M9)
inactive: [1] 0.025 | [2] -0.007 | [3] 0.032 | [4] 0.026 | [5] -0.008

GAPVD1 isoform 6 (UniProt Q14C86)
inactive: [1] -0.013 | [2] 0.002 | [3] 0.002 | [4] -0.011 | [5] 0.063

GAR1 (UniProt Q9NY12)
inactive: [1] 0.017 | [2] -0.041 | [3] 0.012 | [4] -0.01 | [5] 0.078

FUNDC2 (UniProt Q9BWH2)
inactive: [1] 0.01 | [2] 0.009 | [3] -0.003 | [4] -0.061 | [5] 0.025

GATAD2A isoform 3 (UniProt Q86YP4)
inactive: [1] -0.01 | [2] -0.006 | [3] 0.032 | [4] -0.015 | [5] 0.036

FUBP1 (UniProt Q96AE4)
inactive: [1] 0.069 | [2] 0.143 | [3] 0.028 | [4] 0.049 | [5] 0.003

GBE1 (UniProt Q04446)
inactive: [1] -0.043 | [2] -0.007 | [3] 0.058 | [4] 0.009 | [5] 0.027

GALC (UniProt P54803)
inactive: [1] -0.009 | [2] -0.021 | [3] 0.018 | [4] -0.025 | [5] -0.05

FRMD8 (UniProt Q9BZ67)
inactive: [1] 0.11 | [2] -0.124 | [3] 0.016 | [4] 0.198 | [5] -0.042

GBA (UniProt P04062)
inactive: [1] 0.015 | [2] 0.018 | [3] 0.051 | [4] 0.042 | [5] -0.033
